Results are given in words; binding and its absence hold for the method and conditions named. Binding seen in cells or lysates may run through a third protein. Tags and fused reporters may be left off the sequences shown.
Target: MYC-tagged FTL wild type, P02792
Assay: co-IP; HeLa-FTH1 KO cells; anti-MYC IP of MYC-FTH1/FTL, immunoblot; 50 mM Tris-HCl pH 7.5, 150 mM NaCl, 0.5% Nonidet P40, 1 mM DTT; quantified relative to FTH1-WT, normalized to immunoprecipitated FTH1/FTL and NCOA4 input
Details: remark: other sources report otherwise

binding: no binding
B1: C-terminally HA-FLAG-tagged NCOA4, Q13772 1-614 (natural protein)
chain: MNTFQDQSGSSSNREPLLRCSDARRDLELAIGGVLRAEQQIKDNLREVKAQIHSCISRHLECLRSREVWLYEQVDLIYQLKEETLQQQAQQLYSLLGQFNCLTHQLECTQNKDLANQVSVCLERLGSLTLKPEDSTVLLFEADTITLRQTITTFGSLKTIQIPEHLMAHASSANIGPFLEKRGCISMPEQKSASGIVAVPFSEWLLGSKPASGYQAPYIPSTDPQDWLTQKQTLENSQTSSRACNFFNNVGGNLKGLENWLLKSEKSSYQKCNSHSTTSSFSIEMEKVGDQELPDQDEMDLSDWLVTPQESHKLRKPENGSRETSEKFKLLFQSYNVNDWLVKTDSCTNCQGNQPKGVEIENLGNLKCLNDHLEAKKPLSTPSMVTEDWLVQNHQDPCKVEEVCRANEPCTSFAECVCDENCEKEALYKWLLKKEGKDKNGMPVEPKPEPEKHKDSLNMWLCPRKEVIEQTKAPKAMTPSRIADSFQVIKNSPLSEWLIRPPYKEGSPKEVPGTEDRAGKQKFKSPMNTSWCSFNTADWVLPGKKMGNLSQLSSGEDKWLLRKKAQEVLLNSPLQEEHNFPPDHYGLPAVCDLFACMQLKVDKEKWLYRTPLQM
